Measurements as given in article PMC6390993.
No constants are given. Whether binding was seen depends on the method and setting. In cells and extracts the contact can be indirect. A yes stands for co-enrichment or nearness to the bait. Other partners may have been found.

Protein sequences, listed by entry. Tags and fused reporters are not part of them. Lines headed by an entry give the natural chain unless they say otherwise; changes in a name come on top.
UniProt O01483: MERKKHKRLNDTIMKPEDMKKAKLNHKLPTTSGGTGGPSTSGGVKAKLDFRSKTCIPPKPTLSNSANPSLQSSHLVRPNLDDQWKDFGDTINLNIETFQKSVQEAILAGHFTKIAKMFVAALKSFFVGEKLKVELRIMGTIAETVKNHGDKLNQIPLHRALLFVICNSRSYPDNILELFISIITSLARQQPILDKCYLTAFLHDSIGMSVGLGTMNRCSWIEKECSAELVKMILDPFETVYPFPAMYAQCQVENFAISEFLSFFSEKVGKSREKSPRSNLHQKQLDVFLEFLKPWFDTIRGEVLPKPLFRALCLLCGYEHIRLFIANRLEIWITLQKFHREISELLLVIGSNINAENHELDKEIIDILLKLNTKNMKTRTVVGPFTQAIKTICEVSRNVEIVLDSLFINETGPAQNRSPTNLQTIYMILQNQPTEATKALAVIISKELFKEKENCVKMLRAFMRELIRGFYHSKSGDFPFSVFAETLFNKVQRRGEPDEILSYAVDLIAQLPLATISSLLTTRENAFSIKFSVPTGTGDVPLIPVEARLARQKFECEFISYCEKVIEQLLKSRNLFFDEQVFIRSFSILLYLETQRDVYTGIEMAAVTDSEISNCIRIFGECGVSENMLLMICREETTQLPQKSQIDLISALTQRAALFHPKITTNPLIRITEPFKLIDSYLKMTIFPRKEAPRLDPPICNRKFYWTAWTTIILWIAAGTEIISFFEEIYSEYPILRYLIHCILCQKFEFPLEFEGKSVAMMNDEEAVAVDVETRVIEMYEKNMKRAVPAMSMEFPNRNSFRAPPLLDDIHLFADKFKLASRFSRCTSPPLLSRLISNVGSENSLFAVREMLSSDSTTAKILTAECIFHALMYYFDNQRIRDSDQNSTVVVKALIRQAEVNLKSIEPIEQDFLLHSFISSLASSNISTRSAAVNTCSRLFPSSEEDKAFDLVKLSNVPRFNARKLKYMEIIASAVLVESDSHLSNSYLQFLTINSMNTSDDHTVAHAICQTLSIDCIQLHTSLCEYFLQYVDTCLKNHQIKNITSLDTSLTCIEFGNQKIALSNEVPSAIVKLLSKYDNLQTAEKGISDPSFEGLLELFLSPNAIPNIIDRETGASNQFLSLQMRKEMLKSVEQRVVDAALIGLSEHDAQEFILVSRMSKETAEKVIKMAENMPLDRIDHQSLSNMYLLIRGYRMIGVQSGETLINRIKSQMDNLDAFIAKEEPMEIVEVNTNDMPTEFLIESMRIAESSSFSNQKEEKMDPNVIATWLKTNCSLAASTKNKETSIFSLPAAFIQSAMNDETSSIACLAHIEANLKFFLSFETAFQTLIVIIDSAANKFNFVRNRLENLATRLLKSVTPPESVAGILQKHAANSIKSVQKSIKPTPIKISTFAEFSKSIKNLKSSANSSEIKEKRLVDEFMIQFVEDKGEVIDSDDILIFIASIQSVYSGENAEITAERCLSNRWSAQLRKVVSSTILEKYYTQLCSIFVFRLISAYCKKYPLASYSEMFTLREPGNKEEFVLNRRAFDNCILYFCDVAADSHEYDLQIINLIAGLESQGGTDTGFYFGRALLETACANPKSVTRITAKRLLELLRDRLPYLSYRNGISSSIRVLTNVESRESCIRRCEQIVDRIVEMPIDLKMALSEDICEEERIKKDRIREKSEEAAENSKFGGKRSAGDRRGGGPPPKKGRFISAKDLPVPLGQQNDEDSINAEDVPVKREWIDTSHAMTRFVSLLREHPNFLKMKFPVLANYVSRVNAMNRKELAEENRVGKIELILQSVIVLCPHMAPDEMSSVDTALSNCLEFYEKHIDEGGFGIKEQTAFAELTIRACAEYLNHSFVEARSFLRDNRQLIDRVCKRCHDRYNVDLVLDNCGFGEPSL
UniProt O18167: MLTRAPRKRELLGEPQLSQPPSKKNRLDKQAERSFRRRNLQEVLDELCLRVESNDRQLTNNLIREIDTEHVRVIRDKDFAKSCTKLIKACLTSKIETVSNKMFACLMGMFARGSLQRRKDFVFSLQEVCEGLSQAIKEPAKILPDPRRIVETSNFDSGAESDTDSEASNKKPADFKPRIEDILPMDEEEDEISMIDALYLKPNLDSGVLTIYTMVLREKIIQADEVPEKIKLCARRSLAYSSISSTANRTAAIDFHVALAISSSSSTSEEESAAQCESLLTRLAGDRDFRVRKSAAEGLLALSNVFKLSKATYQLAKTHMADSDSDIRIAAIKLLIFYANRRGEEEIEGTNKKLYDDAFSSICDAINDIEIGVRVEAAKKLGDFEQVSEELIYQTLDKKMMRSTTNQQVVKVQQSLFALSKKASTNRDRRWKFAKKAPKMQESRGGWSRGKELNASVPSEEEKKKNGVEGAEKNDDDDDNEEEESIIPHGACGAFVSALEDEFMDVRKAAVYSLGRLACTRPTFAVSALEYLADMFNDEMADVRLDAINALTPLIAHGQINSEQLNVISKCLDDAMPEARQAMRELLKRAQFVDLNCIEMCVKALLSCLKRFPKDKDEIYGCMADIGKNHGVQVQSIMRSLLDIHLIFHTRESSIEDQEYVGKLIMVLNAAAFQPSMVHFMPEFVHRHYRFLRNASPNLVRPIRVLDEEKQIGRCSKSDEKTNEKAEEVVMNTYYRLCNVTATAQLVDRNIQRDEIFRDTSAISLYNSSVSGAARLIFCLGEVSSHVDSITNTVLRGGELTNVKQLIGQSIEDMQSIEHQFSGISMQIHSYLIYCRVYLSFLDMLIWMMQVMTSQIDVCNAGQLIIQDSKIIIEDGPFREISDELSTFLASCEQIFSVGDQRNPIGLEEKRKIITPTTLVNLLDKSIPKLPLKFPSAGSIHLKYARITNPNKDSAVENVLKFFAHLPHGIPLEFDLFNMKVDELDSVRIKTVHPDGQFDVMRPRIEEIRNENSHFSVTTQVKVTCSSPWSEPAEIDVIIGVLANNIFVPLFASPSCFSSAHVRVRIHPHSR
UniProt Q9U267: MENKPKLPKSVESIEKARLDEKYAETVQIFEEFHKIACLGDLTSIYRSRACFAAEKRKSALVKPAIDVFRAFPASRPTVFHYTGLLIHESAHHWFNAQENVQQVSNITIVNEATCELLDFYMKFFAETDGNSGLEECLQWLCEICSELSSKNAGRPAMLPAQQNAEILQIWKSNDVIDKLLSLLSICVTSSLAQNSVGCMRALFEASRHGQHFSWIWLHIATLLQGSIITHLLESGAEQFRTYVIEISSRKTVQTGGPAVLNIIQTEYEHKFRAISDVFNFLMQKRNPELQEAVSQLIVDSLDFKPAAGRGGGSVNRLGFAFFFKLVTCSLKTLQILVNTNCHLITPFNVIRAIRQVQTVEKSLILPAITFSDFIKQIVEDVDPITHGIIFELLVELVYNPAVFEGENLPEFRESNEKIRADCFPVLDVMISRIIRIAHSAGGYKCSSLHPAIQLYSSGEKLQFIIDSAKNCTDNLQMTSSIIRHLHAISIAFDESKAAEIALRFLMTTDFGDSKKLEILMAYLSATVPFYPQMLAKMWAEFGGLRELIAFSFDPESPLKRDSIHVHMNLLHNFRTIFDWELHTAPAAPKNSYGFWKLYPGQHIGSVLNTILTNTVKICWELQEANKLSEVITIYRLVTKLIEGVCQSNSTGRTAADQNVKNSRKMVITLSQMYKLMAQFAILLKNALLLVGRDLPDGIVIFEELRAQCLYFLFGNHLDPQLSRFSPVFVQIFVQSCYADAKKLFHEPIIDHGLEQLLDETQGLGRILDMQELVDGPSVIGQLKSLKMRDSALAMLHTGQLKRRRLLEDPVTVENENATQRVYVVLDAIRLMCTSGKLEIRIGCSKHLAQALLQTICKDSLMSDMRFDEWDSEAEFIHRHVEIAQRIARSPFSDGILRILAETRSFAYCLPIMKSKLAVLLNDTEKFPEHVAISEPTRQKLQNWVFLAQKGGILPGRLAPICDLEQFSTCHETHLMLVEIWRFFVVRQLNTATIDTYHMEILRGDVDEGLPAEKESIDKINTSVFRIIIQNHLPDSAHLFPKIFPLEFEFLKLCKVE
UniProt Q95ZM2: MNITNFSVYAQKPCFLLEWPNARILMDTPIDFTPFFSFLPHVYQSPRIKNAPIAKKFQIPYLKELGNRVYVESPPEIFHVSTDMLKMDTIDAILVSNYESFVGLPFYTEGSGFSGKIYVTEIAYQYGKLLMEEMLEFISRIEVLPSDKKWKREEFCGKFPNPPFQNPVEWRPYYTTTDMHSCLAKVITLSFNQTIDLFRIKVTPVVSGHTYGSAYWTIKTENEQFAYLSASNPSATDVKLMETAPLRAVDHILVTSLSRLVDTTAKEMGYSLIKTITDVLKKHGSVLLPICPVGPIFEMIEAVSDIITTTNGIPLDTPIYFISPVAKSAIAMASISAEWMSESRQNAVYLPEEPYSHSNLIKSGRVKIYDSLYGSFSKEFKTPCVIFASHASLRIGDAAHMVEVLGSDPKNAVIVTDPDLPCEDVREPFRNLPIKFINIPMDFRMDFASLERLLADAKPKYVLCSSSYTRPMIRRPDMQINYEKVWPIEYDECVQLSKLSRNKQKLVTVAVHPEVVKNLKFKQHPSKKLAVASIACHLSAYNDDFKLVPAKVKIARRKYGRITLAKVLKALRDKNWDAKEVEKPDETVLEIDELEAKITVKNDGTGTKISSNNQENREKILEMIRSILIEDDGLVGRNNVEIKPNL

Target: INTS-6::3xFLAG::eGFP (C. elegans) (UniProt H2KZC8)
Assay: affinity purification with mass spectrometry; anti-FLAG M2 magnetic beads (150 ul) with 30 mg protein extract of strain JCP378, 3-4 h or O/N at 4°C; washed three times with TBS (50 mM Tris HCl, 150 mM NaCl, pH 7.4); eluted by boiling in SDS sample buffer or with 3xFLAG peptide; Coomassie gel bands digested with trypsin, LC-MS/MS; WT N2 extract as control for nonspecific binding; four independent co-immunoprecipitations

INTS-1 (C06A5.1) (from UniProt O01483)
binding: binds

INTS-4 (W04A4.5) (from UniProt O18167)
binding: binds

INTS-5 (Y51A2D.7) (from UniProt Q9U267)
binding: binds

INTS-9 (F19F10.12) (from UniProt Q95ZM2)
binding: binds
